Experimental data published in PMC6192992.
Results are given in words; binding and its absence hold for the method and conditions named. In cells and extracts the contact can be indirect. Some entries that bind do so weakly or less than the wild type. Sequences can lack the tags named with a protein.

Target: T1, MYC-CCDC36 (UniProt Q8IYA8)
T1 sequence: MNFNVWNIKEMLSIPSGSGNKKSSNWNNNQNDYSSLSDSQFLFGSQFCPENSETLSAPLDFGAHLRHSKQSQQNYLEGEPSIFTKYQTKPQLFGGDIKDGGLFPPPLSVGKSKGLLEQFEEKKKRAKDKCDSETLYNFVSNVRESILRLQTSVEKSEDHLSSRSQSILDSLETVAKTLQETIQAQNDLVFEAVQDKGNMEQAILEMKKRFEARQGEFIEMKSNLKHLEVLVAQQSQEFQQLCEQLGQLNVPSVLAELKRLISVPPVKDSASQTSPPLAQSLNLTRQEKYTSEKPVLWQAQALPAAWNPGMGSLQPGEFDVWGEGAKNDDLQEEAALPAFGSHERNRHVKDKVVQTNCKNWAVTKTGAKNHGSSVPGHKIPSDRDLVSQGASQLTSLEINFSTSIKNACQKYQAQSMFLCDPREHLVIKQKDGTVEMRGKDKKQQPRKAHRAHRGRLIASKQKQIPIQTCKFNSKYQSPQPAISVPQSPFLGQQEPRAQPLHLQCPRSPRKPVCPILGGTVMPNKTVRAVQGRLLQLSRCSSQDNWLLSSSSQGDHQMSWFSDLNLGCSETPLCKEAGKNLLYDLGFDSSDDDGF
Experiment: co-IP; H1299 cells transfected with MYC-CCDC36 alone or together with HA-HORMAD1; 48 h later IR (10 Gy) or sham, harvested 1 h after; extracts immunoprecipitated with MYC antibodies; immunoblot with anti-HA and anti-MYC

B1: HA-HORMAD1 (protein, UniProt Q86X24 1-394)
chain: MATAQLQRTPMSALVFPNKISTEHQSLVLVKRLLAVSVSCITYLRGIFPECAYGTRYLDDLCVKILREDKNCPGSTQLVKWMLGCYDALQKKYLRMVVLAVYTNPEDPQTISECYQFKFKYTNNGPLMDFISKNQSNESSMLSTDTKKASILLIRKIYILMQNLGPLPNDVCLTMKLFYYDEVTPPDYQPPGFKDGDCEGVIFEGEPMYLNVGEVSTPFHIFKVKVTTERERMENIDSTILSPKQIKTPFQKILRDKDVEDEQEHYTSDDLDIETKMEEQEKNPASSELEEPSLVCEEDEIMRSKESPDLSISHSQVEQLVNKTSELDMSESKTRSGKVFQNKMANGNQPVKSSKENRKRSQHESGRIVLHHFDSSSQESVPKRRKFSEPKEHI
B1 was tested, and the binding was “binds”.
